Test results taken from the supplement of paper PMC11348887.
Counter-ions that a name gives are not always drawn. Some of the results follow. Most values lie at the level of the controls, where differences are scatter.

Experiments:
Details in all cases: 5 µM; treatment: days 7-14 after plating, readout day 21
[1] = tested on: hPSC-derived cortical neurons (WA09); assay: nucleus area z-score vs screen plate; higher = larger nuclei (more mature)
[2] = tested on: hPSC-derived cortical neurons (WA09); assay: total neurite length per nucleus (MAP2) z-score; higher = more neurite growth
[3] = tested on: hPSC-derived cortical neurons (WA09); assay: nucleus roundness z-score vs screen plate; higher = rounder nuclei (more mature)
[4] = tested on: hPSC-derived cortical neurons (WA09); assay: KCl-induced FOS+/EGR-1+ double-positive nuclei fraction z-score (KCl minus unstimulated); higher = stronger activity-induced IEG response

Structure (SMILES) | nucleus area z-score [1] | total neurite length per nucleus (z-score) [2] | nucleus roundness z-score [3] | KCl-induced FOS+/EGR-1+ double-positive nuclei fraction z-score [4]
CC(C(=O)O)c1ccc2c(c1)[nH]c1ccc(Cl)cc12 (configuration not stated) [Carprofen] | 0.106 | 1.01 | 0.381 | -0.726
CCCCCCCCC/C(=C\C1=C(C)C(=O)C(OC)=C(OC)C1=O)C(=O)O | 1.13 | 1.74 | 0.583 | 2.34
CC(=O)Oc1ccccc1C(=O)O [Aspirin] | 0.46 | 0.615 | 0.235 | -0.0913
C=CC(=O)N1CCC[C@@H](n2nc(-c3ccc(Oc4ccccc4)cc3)c3c(N)ncnc32)C1 | 0.919 | -0.154 | -0.396 | -0.641
COc1ccc2cc3[n+](cc2c1OC)CCc1cc2c(cc1-3)OCO2 [Berberine HCl] | -8.2 | -3.65 | -4.69 | -1.49
COC(=O)/C=C/C(=O)OC [Dimethyl Fumarate] | 0.446 | 0.973 | 0.369 | 4.88
O=C(O)C(Cc1c[nH]c2ccccc12)N1C(=O)c2ccccc2C1=O (configuration not stated) | 0.756 | -0.572 | -0.686 | 0.0858
CCCN(CCC)S(=O)(=O)c1ccc(C(=O)O)cc1 [Probenecid] | -0.0528 | 0.339 | -0.317 | 0.815
NCCCC[C@H](N[C@@H](CCc1ccccc1)C(=O)O)C(=O)N1CCC[C@H]1C(=O)O [Lisinopril] | -0.1 | 1.04 | 0.855 | -0.333
CC(C)n1cnc2c(NCCc3ccc(O)cc3)nc(-c3csc4ccccc34)nc21 [StemRegenin 1 (SR1)] | -1.99 | -0.0252 | 0.315 | 0.175
CN1CCN(C(=O)C2C(C(=O)O)[C@H]3CC[C@@H]2O3)CC1 (some centres not stated) | 0.733 | 0.18 | -1.1 | 0.0387
Cc1ccc(Nc2nccc(N(C)c3ccc4c(C)n(C)nc4c3)n2)cc1S(N)(=O)=O | 0.0454 | 1.74 | 0.165 | 2.07
CCCCNc1ncc2c(-c3ccc(CN4CCN(C)CC4)cc3)cn([C@H]3CC[C@H](O)CC3)c2n1 | -10.1 | -3.5 | -9.71 | 2.37
C[C@H](NC(=O)Cc1cc(F)cc(F)c1)C(=O)N[C@@H]1C(=O)N(C)c2ccccc2-c2ccccc21 | 0.791 | 0.201 | 0.00915 | 1.08
COc1ccc(CCc2nc3cc(-c4c(C)noc4C)ccc3n2C[C@H](C)N2CCOCC2)cc1Cl | 2.7 | 1.75 | 0.559 | -0.0226
O=C(O)CCCc1ccccc1 [Sodium Phenylbutyrate] | 0.164 | 0.0222 | 0.126 | 0.614
C[C@@H]1CN(CC(=O)Nc2ccc3c(c2)Cc2cccc(-c4cc(=O)cc(N5CCOCC5)o4)c2S3)C[C@H](C)O1 | -0.763 | -0.494 | -0.276 | -0.2
NC1=NCC2c3ccccc3Cc3ccccc3N12 (configuration not stated) [Epinastine HCl] | 0.706 | 0.306 | 0.774 | 0.0384
O[C@@H]1CO[C@H]2[C@@H]1OC[C@@H]2O [Isosorbide] | -0.281 | 0.103 | 0.617 | -0.296
S=c1[nH]cnc2nc[nH]c12 [Mercaptopurine (6-MP)] | -1.55 | 2.36 | -1.95 | -3.17

Structure (SMILES) | nucleus area z-score [1] | total neurite length per nucleus (z-score) [2] | nucleus roundness z-score [3] | KCl-induced FOS+/EGR-1+ double-positive nuclei fraction z-score [4]
c1ccc2c(CCNc3ccc(Nc4ccncc4)cc3)c[nH]c2c1 | -0.00744 | 1.42 | -2.44 | 0.866
NCCCC[C@@H]1NC(=O)[C@@H](Cc2ccccc2)NC(=O)[C@H](CC(=O)O)NC(=O)CNC(=O)[C@H](CCCN=C(N)N)NC1=O [Cyclo (-RGDfK)] | 2.08 | -0.584 | -0.0253 | 0.557
NC(=O)CC[C@@H](N)C(=O)O [D-glutamine] | 1.18 | 0.266 | 0.35 | -0.121
C[C@H]1Oc2cc(cnc2N)-c2c(nn(C)c2C#N)CN(C)C(=O)c2ccc(F)cc21 | 0.911 | 1.93 | 0.202 | 0.0606
CCN(CC)CCCCNc1ncc2cc(-c3cc(OC)cc(OC)c3)c(NC(=O)NC(C)(C)C)nc2n1 | -1.41 | 0.615 | 0.157 | -0.73
CC(C)n1nc(-c2ccc3oc(N)nc3c2)c2c(N)ncnc21 | -4.26 | -3.29 | -1.97 | -0.91
O=C(c1ccc(OCCCc2c[nH]cn2)cc1)C1CC1 [Ciproxifan] | 2.8 | -1.64 | -0.402 | -0.167
COc1cc2ncnc(Nc3ccc(O)c(Br)c3)c2cc1OC | 1.98 | 0.442 | -0.537 | 0.77
COc1cc(C)c(/C=C/C(C)=C/C=C/C(C)=C/C(=O)O)c(C)c1C [Acitretin] | 0.324 | 0.17 | 0.0115 | 0.892
COC(=O)N[C@H](C(=O)N[C@@H](Cc1ccccc1)[C@@H](O)CN(Cc1ccc(-c2ccccn2)cc1)NC(=O)[C@@H](NC(=O)OC)C(C)(C)C)C(C)(C)C [Atazanavir] | -0.0159 | 0.146 | 0.0671 | -0.174
Nc1cccc2c1CN(C1CCC(=O)NC1=O)C2=O (configuration not stated) [Lenalidomide (CC-5013)] | 1.08 | 0.161 | 0.907 | 0.802
CC#CC(=O)N1CCC[C@H]1c1nc(-c2ccc(C(=O)Nc3ccccn3)cc2)c2c(N)nccn12 [Acalabrutinib (ACP-196)] | 1.27 | -1.15 | -3.25 | -0.635
CN1CCc2c(c3ccccc3n2Cc2ccc(C(=O)NO)cc2)C1 [Tubastatin A HCl] | -0.0416 | -0.47 | 0.36 | -0.583
CCN(CC)Cc1cc(Nc2ccnc3cc(Cl)ccc23)ccc1O [Amodiaquine dihydrochloride dihydrate] | -3.55 | -1.23 | -1.95 | -0.469
O=C(O)CNC(=O)c1nc(Cl)c2ccccc2c1O | -0.00601 | 1.02 | 0.407 | 0.211
C=C1C(=O)O[C@H]2[C@H]1CC/C(C)=C/CC[C@@]1(C)O[C@@H]21 [(-)-Parthenolide] | -0.302 | -0.87 | -1.19 | 0.0475
CN(C(=O)c1ccc(F)cc1C(F)(F)F)C1CCN(c2nnc(-c3ccnn3C)c3ccccc23)CC1 | -0.46 | 1.82 | 0.28 | -0.242
Oc1c(Cl)cc(Cl)cc1Sc1cc(Cl)cc(Cl)c1O [Bithionol] | -0.153 | 0.0648 | -0.00542 | 0.945
CC(=O)c1cc([N+](=O)[O-])c(Sc2ccc(F)cc2F)s1 | -0.0844 | 0.0385 | 0.414 | -0.0241
CC(C)(O)c1ccccc1CC[C@@H](SCC1(CC(=O)O)CC1)c1cccc(/C=C/c2ccc3ccc(Cl)cc3n2)c1 [Montelukast Sodium] | 0.624 | 0.52 | 0.238 | -0.103

Structure (SMILES) | nucleus area z-score [1] | total neurite length per nucleus (z-score) [2] | nucleus roundness z-score [3] | KCl-induced FOS+/EGR-1+ double-positive nuclei fraction z-score [4]
CC1(C)S[C@@H]2[C@H](NC(=O)Cc3ccccc3)C(=O)N2[C@H]1C(=O)O [Penicillin G Sodium] | -0.167 | 0.687 | 0.84 | 0.896
Cc1ccc(NC(=O)c2ccc(CN3CCN(C)CC3)cc2)cc1Nc1nccc(-c2cccnc2)n1 [Imatinib Mesylate (STI571)] | -0.0852 | 0.856 | 0.0199 | 1.21
CCN(CC)CCOc1ccc(C(=C(Cl)c2ccccc2)c2ccccc2)cc1 [Clomifene citrate] | -4.48 | -3.51 | -4.22 | -1.34
CCCS(=O)(=O)Nc1ccc(F)c(C(=O)c2c[nH]c3ncc(-c4ccc(Cl)cc4)cc23)c1F [Vemurafenib (PLX4032_ RG7204)] | 0.459 | -0.169 | 0.423 | 0.572
C#CC[C@H](c1nc2cc(Cl)ccc2c(=O)n1Nc1ccccc1)N(CCCN)C(=O)c1cccc(Cl)c1F | -11.1 | -5.2 | -6.92 | -1.06
C[C@]12C=CC(=O)C=C1CC[C@H]1[C@@H]3C[C@@H](O)[C@](O)(C(=O)CO)[C@@]3(C)C[C@H](O)[C@@]12F [Triamcinolone] | 0.0292 | -0.101 | -0.233 | -0.171
CC(=O)O[C@]1(C(C)=O)CC[C@H]2[C@@H]3C[C@H](C)C4=CC(=O)C=C[C@]4(C)[C@@]3(F)[C@@H](O)C[C@@]21C [Fluorometholone Acetate] | -0.47 | 0.145 | 0.0197 | -0.558
CCc1c2c(nc3ccc(O)cc13)-c1cc3c(c(=O)n1C2)COC(=O)[C@]3(O)CC | -0.266 | -1.62 | -1.35 | -1.34
Nc1nccs1 [Aminothiazole] | -0.629 | 0.186 | 0.291 | -0.509
C[C@@H]1CC(=O)NN=C1c1ccc(NN=C(C#N)C#N)cc1 [Levosimendan] | -0.111 | 1.21 | 1.89 | 2.77
CC1(C)S[C@@H]2[C@H](NC(=O)[C@H](N)c3ccc(O)cc3)C(=O)N2[C@H]1C(=O)O [Amoxicillin] | -0.072 | 0.966 | 1.13 | 0.831
C=C[C@]1(C)C[C@@H](OC(=O)CS[C@@H]2C[C@H]3CC[C@@H](C2)N3C)[C@]2(C)[C@H](C)CC[C@]3(CCC(=O)[C@H]32)[C@@H](C)[C@@H]1O [Retapamulin] | -0.586 | 0.489 | 0.102 | 1.01
C/C=C1\NC(=O)[C@H]2CSSCC/C=C/[C@H](CC(=O)N[C@H](C(C)C)C(=O)N2)OC(=O)[C@H](C(C)C)NC1=O [Romidepsin (FK228_ Depsipeptide)] | -13.1 | -4.61 | -0.501 | -0.41
CN1C[C@@H]2C[C@H]1CN2c1cc2c(cc1F)c(=O)c(C(=O)O)cn2C1CC1 [Danofloxacin Mesylate] | -0.325 | 0.0211 | 1.34 | 0.191
C1=N/C2=N/c3ccc(OCCN4CCCC4)c(c3)COC/C=C/COCc3cccc(c3)C(=C1)N2 [Pacritinib (SB1518)] | -12 | -4.02 | -0.138 | -2.75
C[C@@H]1O[C@@H]1P(=O)(O)O [Fosfomycin Tromethamine] | 0.7 | 0.337 | 0.956 | 0.942
Cc1ccc(Cl)c(Nc2ccccc2C(=O)O)c1Cl [Meclofenamate Sodium] | 1.37 | 0.0348 | -1.85 | 0.00604
CC(C)(Oc1ccc(C2CC2(Cl)Cl)cc1)C(=O)O (configuration not stated) [Ciprofibrate] | 0.83 | 0.831 | -0.131 | 0.607

One compound at a time (already shown).
C=C[C@]1(C)C[C@@H](OC(=O)CS[C@@H]2C[C@H]3CC[C@@H](C2)N3C)[C@]2(C)[C@H](C)CC[C@]3(CCC(=O)[C@H]32)[C@@H](C)[C@@H]1O [Retapamulin] reads nucleus area z-score [1]: -0.586; total neurite length per nucleus (z-score) [2]: 0.489; nucleus roundness z-score [3]: 0.102; KCl-induced FOS+/EGR-1+ double-positive nuclei fraction z-score [4]: 1.01
CN1C[C@@H]2C[C@H]1CN2c1cc2c(cc1F)c(=O)c(C(=O)O)cn2C1CC1 [Danofloxacin Mesylate] reads nucleus area z-score [1]: -0.325; total neurite length per nucleus (z-score) [2]: 0.0211; nucleus roundness z-score [3]: 1.34; KCl-induced FOS+/EGR-1+ double-positive nuclei fraction z-score [4]: 0.191
CC(=O)O[C@]1(C(C)=O)CC[C@H]2[C@@H]3C[C@H](C)C4=CC(=O)C=C[C@]4(C)[C@@]3(F)[C@@H](O)C[C@@]21C [Fluorometholone Acetate] reads nucleus area z-score [1]: -0.47; total neurite length per nucleus (z-score) [2]: 0.145; nucleus roundness z-score [3]: 0.0197; KCl-induced FOS+/EGR-1+ double-positive nuclei fraction z-score [4]: -0.558
Cc1ccc(Cl)c(Nc2ccccc2C(=O)O)c1Cl [Meclofenamate Sodium] reads nucleus area z-score [1]: 1.37; total neurite length per nucleus (z-score) [2]: 0.0348; nucleus roundness z-score [3]: -1.85; KCl-induced FOS+/EGR-1+ double-positive nuclei fraction z-score [4]: 0.00604
